Results deposited as PubChem BioAssay AID504793 (Drosophila RNAi Screening Center, 2011)

Test: 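Genes required for cells to halt at G2/M after double-strand DNA breaks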 (primary screen)
Cells: Drosophila S2R+ cells
Knock-down reagent: long dsRNA against Drosophila genes, about 0.25 µg dsRNA per well
Timing: 4 days of dsRNA, then 4 hours of drug before read-out
Challenge: doxorubicin 0.5 µM for 4 hours to cause double-strand breaks, in cells also given a low, harmless dose of dsRNA against nbs to sensitise the assay
Detection: 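Mitotic index as the number of phospho-histone H3-positive cells in each well following doxorubicin, given as raw counts without normalisation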
Reading the numbers: mitotic cells: higher = more cells in mitosis, weaker G2 arrest
Active means: 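Genes are called active only when high mitotic counts were reproduced with independent dsRNAs and mitosis was checked for delay without damage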
Meaning of the calls: active = confirmed in follow-up tests; inactive = not confirmed
In all, the deposit lists about 23,000 reagents; shown is a random part of those that have a named target and a result. In the full data, 62 (0.27%) were called active. 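Calls come from follow-up tests whose scores are not deposited, so confirmed genes may have low counts here; counts are not normalised per plate.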 Raw values are not corrected between plates.

gene	amplicon	mitotic cells, replicate 1	mitotic cells, replicate 2	Outcome
GstD10	DRSC15346	3		inactive
GstD10	DRSC25140	4		inactive
Vm34Ca	DRSC03475	5		inactive
Vm34Ca	DRSC25260			inactive
CG12880	DRSC14568	6		inactive
pll	DRSC17026	8		inactive
pll	DRSC28551	9		inactive
Msr-110	DRSC11227	6		inactive
Msr-110	DRSC25246	8		inactive
CG33217	DRSC22907	12		inactive
CG33217	DRSC28139	9		inactive
Ppcs	DRSC14127	7		inactive
Miox	DRSC10747	5		inactive
Miox	DRSC24306	6		inactive
Nepl12	DRSC16411	8		inactive
Opa1	DRSC07191	6		inactive
Opa1	DRSC28908	6		inactive
CG33108	DRSC21613	11		inactive
CG33108	DRSC26424	2		inactive
CG31697	DRSC22273	4		inactive
Cyp6a19	DRSC07379	4		inactive
CG46301	DRSC01916	10	14	inactive
CG46301	DRSC25566	4		inactive
CG17571	DRSC01768	7		inactive
CG17571	DRSC03755	8		inactive
CG17571	DRSC25111	7		inactive
CG4563	DRSC04474	5		inactive
rod	DRSC17047	11		inactive
CG10959	DRSC17769	8		inactive
CG10959	DRSC29120	6		inactive
CG10809	DRSC09802	5		inactive
CG10809	DRSC29041	3		inactive
CG1979	DRSC12495	4		inactive
CG1979	DRSC24707	4		inactive
Frmd5	DRSC02802	2		inactive
fred	DRSC00349	4		inactive
fred	DRSC00599	10		inactive
fred	DRSC00601	3		inactive
fred	DRSC00602	3		inactive
fred	DRSC21906	14		inactive
sba	DRSC13643	8		inactive
sba	DRSC17050	11	2	inactive
sba	DRSC25797	8		inactive
CG2617	DRSC02712	3		inactive
CG2617	DRSC24947	4		inactive
SIDL	DRSC16077	6		inactive
CG11360	DRSC17134	13		inactive
TrxT	DRSC23117	6		inactive
CG31559	DRSC12172	6		inactive
CG31559	DRSC12270	5		inactive
Hat1	DRSC12298	5		inactive
Hat1	DRSC29235	6		inactive
CG8435	DRSC07179	2		inactive
CG8435	DRSC29713	6		inactive
CG15254	DRSC01870	11		inactive
CG15254	DRSC21765	4		inactive
CG15254	DRSC29568	6		inactive
Gr36c	DRSC02437	6		inactive
Gr36c	DRSC26305	12		inactive
mRpL13	DRSC02076	7		inactive
mRpL13	DRSC30067	5		inactive
Acox3	DRSC03251	4		inactive
Acox3	DRSC23799	2		inactive
CG10934	DRSC06017	12		inactive
bab1	DRSC08709	11		inactive
bab1	DRSC21882	14		inactive
bab1	DRSC25457	6		inactive
Cyp4d21	DRSC03305	2		inactive
Cyp4d21	DRSC25622	9		inactive
CG7139	DRSC11611	5		inactive
CG7139	DRSC24579	6		inactive
CG44014	DRSC14995	1		inactive
CG44014	DRSC28897	5		inactive
hyx	DRSC14462	2		inactive
Idh3g	DRSC15699	2		inactive
Idh3g	DRSC26628	4		inactive
Vps37B	DRSC12165	4		inactive
CG40198	DRSC21068	16	9	inactive
LManIV	DRSC03222	5		inactive
LManIV	DRSC27811	5		inactive
tin	DRSC17083	13		inactive
tin	DRSC23248	5		inactive
tin	DRSC28260	4		inactive
Idua	DRSC02941			inactive
side	DRSC14523	11	12	inactive
side	DRSC14716	14		inactive
side	DRSC14717	14		inactive
side	DRSC14718	9		inactive
side	DRSC14721	7		inactive
IM33	DRSC00476	1		inactive
IM33	DRSC24513	4		inactive
CG10516	DRSC09738	4		inactive
Deaf1	DRSC11143	11		inactive
Deaf1	DRSC22786	24		inactive
Deaf1	DRSC25984	18		inactive
Rab21	DRSC20968	10		inactive
Rab21	DRSC28617	1		inactive
CG4741	DRSC04485	6		inactive
CG4741	DRSC25673	9		inactive
CG1103	DRSC24616	3		inactive
Su(var)2-HP2	DRSC06204	7		inactive
Su(var)2-HP2	DRSC29542	3		inactive
MED8	DRSC06426	3		inactive
CG1316	DRSC08304	8		inactive
CG33768	DRSC11715	5		inactive
CG14431	DRSC17925	12		inactive
CG14431	DRSC23593	3		inactive
SsRbeta	DRSC11290	11		inactive
CG12502	DRSC23247	6		inactive
Rpn13R	DRSC18404	18		inactive
Rpn13R	DRSC23628	9		inactive

An excerpt from the list above, for reference:
gene	amplicon	mitotic cells, replicate 1	mitotic cells, replicate 2	Outcome
CG10934	DRSC06017	12		inactive
bab1	DRSC08709	11		inactive
bab1	DRSC21882	14		inactive
bab1	DRSC25457	6		inactive
Cyp4d21	DRSC03305	2		inactive
Cyp4d21	DRSC25622	9		inactive
CG7139	DRSC11611	5		inactive
CG7139	DRSC24579	6		inactive
CG44014	DRSC14995	1		inactive
CG44014	DRSC28897	5		inactive
hyx	DRSC14462	2		inactive
Idh3g	DRSC15699	2		inactive
